Source: article PMC12752627, “Discovery of a Potent and Selective TEAD Degrader with Durable Degradation Activity” (Advanced Science, 2025)
This continues a long series; more values of the same kind are listed elsewhere.

Tested on: 867 cancer cell lines
Test: PRISM assay (barcoded cell line screening, 5 days);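 note: top test concentration 10 mM in eight-point dilution series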
Assay type: cell-based
Parameters: scale not given here
Method: The principle of the PRISM assay has been described elsewhere and was conducted as previously outlined by the PRISM team at the Broad Institute.^[ [14], [31] ^] In PRISM (MTS027) experiments, KG‐FP‐003 was tested across 867 different cancer cell lines. Cells were treated with eight concentration gradients, ranging from 4.6 nM to […], in triplicate dilutions over a period of five days. Each plate was treated with 20 µM bortezomib as a positive control and DMSO as a negative control. Three replicate experiments were performed for each compound. The resulting data were analyzed using GraphPad PRISM 9.5.

SMILES: CNC(=O)c1cc2c(c(F)c1-c1c(Cl)c(F)cc3c1C[C@@](CN[C@H]1CC[C@H](C(=O)N4CCC(CC5CCN(C(=O)COc6ccc(N7CCC(=O)NC7=O)c(C)c6)CC5)CC4)CC1)(c1ccccc1)O3)[C@@H](O)[C@@H](C)C2 [KG-FP-003]
- KG-FP-003-AUC (NCIH661_LUNG, PR500): 0.37
- KG-FP-003-AUC (NCIH727_LUNG, PR500): 1.00
- KG-FP-003-AUC (NCIH747_LARGE_INTESTINE, PR500): 0.86
- KG-FP-003-AUC (NCIH838_LUNG, PR500): 0.74
- KG-FP-003-AUC (NCIH841_LUNG, PR500): 0.90
- KG-FP-003-AUC (NCIH1048_LUNG, PR500): 1.00
- KG-FP-003-AUC (NCIH1092_LUNG, PR300): 0.77
- KG-FP-003-AUC (NCIH1299_LUNG, PR500): 0.90
- KG-FP-003-AUC (NCIH1341_LUNG, PR300): 0.98
- KG-FP-003-AUC (NCIH1355_LUNG, PR500): 0.92
- KG-FP-003-AUC (NCIH1373_LUNG, PR500): 0.99
- KG-FP-003-AUC (NCIH1435_LUNG, PR500): 1.00
- KG-FP-003-AUC (NCIH1437_LUNG, PR500): 0.87
- KG-FP-003-AUC (NCIH1563_LUNG, PR500): 0.42
- KG-FP-003-AUC (NCIH1568_LUNG, PR500): 0.77
- KG-FP-003-AUC (NCIH1573_LUNG, PR500): 0.89
- KG-FP-003-AUC (NCIH1581_LUNG, PR500): 1.00
- KG-FP-003-AUC (NCIH1648_LUNG, PR500): 0.99
- KG-FP-003-AUC (NCIH1650_LUNG, PR500): 0.83
- KG-FP-003-AUC (NCIH1651_LUNG, PR500): 1.00
- KG-FP-003-AUC (NCIH1693_LUNG, PR500): 0.63
- KG-FP-003-AUC (NCIH1703_LUNG, PR500): 0.85
- KG-FP-003-AUC (NCIH1792_LUNG, PR500): 0.99
- KG-FP-003-AUC (NCIH1793_LUNG, PR500): 1.00
- KG-FP-003-AUC (NCIH1838_LUNG, PR500): 0.86
- KG-FP-003-AUC (NCIH1915_LUNG, PR500): 0.91
- KG-FP-003-AUC (NCIH1944_LUNG, PR500): 0.99
- KG-FP-003-AUC (NCIH1975_LUNG, PR500): 0.70
- KG-FP-003-AUC (NCIH2004RT_SOFT_TISSUE, PR300): 0.59
- KG-FP-003-AUC (NCIH2009_LUNG, PR500): 0.99
- KG-FP-003-AUC (NCIH2023_LUNG, PR500): 0.79
- KG-FP-003-AUC (NCIH2030_LUNG, PR500): 0.92
- KG-FP-003-AUC (NCIH2052_PLEURA, PR500): 0.63
- KG-FP-003-AUC (NCIH2087_LUNG, PR500): 0.86
- KG-FP-003-AUC (NCIH2110_LUNG, PR500): 0.97
- KG-FP-003-AUC (NCIH2122_LUNG, PR500): 0.79
- KG-FP-003-AUC (NCIH2126_LUNG, PR500): 0.91
- KG-FP-003-AUC (NCIH2170_LUNG, PR500): 0.98
- KG-FP-003-AUC (NCIH2171_LUNG, PR300): 0.85
- KG-FP-003-AUC (NCIH2172_LUNG, PR500): 0.77
- KG-FP-003-AUC (NCIH2196_LUNG, PR300): 1.00
- KG-FP-003-AUC (NCIH2228_LUNG, PR500): 0.89
- KG-FP-003-AUC (NCIH2347_LUNG, PR500): 0.54
- KG-FP-003-AUC (NCIH2444_LUNG, PR500): 0.54
- KG-FP-003-AUC (NCIH2452_PLEURA, PR500): 1.00
- KG-FP-003-AUC (NCO2_HAEMATOPOIETIC_AND_LYMPHOID_TISSUE, PR300): 0.91
- KG-FP-003-AUC (NIHOVCAR3_OVARY, PR300): 0.59
- KG-FP-003-AUC (NOMO1_HAEMATOPOIETIC_AND_LYMPHOID_TISSUE, PR300): 0.91
- KG-FP-003-AUC (NOZ_LIVER, PR300): 0.86
- KG-FP-003-AUC (NP2_CENTRAL_NERVOUS_SYSTEM, PR300): 0.99
- KG-FP-003-AUC (NP3_CENTRAL_NERVOUS_SYSTEM, PR300): 0.98
- KG-FP-003-AUC (NP5_CENTRAL_NERVOUS_SYSTEM, PR300): 0.78
- KG-FP-003-AUC (NUDHL1_HAEMATOPOIETIC_AND_LYMPHOID_TISSUE, PR300): 0.87
- KG-FP-003-AUC (NUGC3_STOMACH, PR500): 0.60
- KG-FP-003-AUC (NUGC4_STOMACH, PR500): 0.99
- KG-FP-003-AUC (NZOV9_OVARY, PR300): 0.81
- KG-FP-003-AUC (OACM51_OESOPHAGUS, PR300): 1.00
- KG-FP-003-AUC (OAW42_OVARY, PR500): 0.94
- KG-FP-003-AUC (OC314_OVARY, PR500): 0.40
- KG-FP-003-AUC (OC316_OVARY, PR500): 0.56
- KG-FP-003-AUC (OCIAML2_HAEMATOPOIETIC_AND_LYMPHOID_TISSUE, PR300): 0.80
- KG-FP-003-AUC (OCIAML5_HAEMATOPOIETIC_AND_LYMPHOID_TISSUE, PR300): 0.88
- KG-FP-003-AUC (OCIC4P_OVARY, PR300): 0.91
- KG-FP-003-AUC (OCIC5X_OVARY, PR300): 0.61
- KG-FP-003-AUC (OCILY3_HAEMATOPOIETIC_AND_LYMPHOID_TISSUE, PR300): 0.86
- KG-FP-003-AUC (OCILY18_HAEMATOPOIETIC_AND_LYMPHOID_TISSUE, PR300): 0.79
- KG-FP-003-AUC (OCILY19_HAEMATOPOIETIC_AND_LYMPHOID_TISSUE, PR300): 0.91
- KG-FP-003-AUC (OCILY132_HAEMATOPOIETIC_AND_LYMPHOID_TISSUE, PR300): 0.71
- KG-FP-003-AUC (OCIM1_HAEMATOPOIETIC_AND_LYMPHOID_TISSUE, PR300): 0.92
- KG-FP-003-AUC (OCIP5X_OVARY, PR300): 0.79
- KG-FP-003-AUC (OCUG1_BILIARY_TRACT, PR300): 0.87
- KG-FP-003-AUC (OE19_OESOPHAGUS, PR500): 0.98
- KG-FP-003-AUC (OE21_OESOPHAGUS, PR500): 0.75
- KG-FP-003-AUC (OE33_OESOPHAGUS, PR500): 0.89
- KG-FP-003-AUC (ONCODG1_OVARY, PR500): 0.69
- KG-FP-003-AUC (ONDA9_CENTRAL_NERVOUS_SYSTEM, PR300): 0.96
- KG-FP-003-AUC (ONS76_CENTRAL_NERVOUS_SYSTEM, PR300): 0.64
- KG-FP-003-AUC (ONS76_CENTRAL_NERVOUS_SYSTEM, PR500): 0.64
- KG-FP-003-AUC (OSC20_UPPER_AERODIGESTIVE_TRACT, PR300): 0.49
- KG-FP-003-AUC (OSRC2_KIDNEY, PR500): 0.91
- KG-FP-003-AUC (OUMS23_LARGE_INTESTINE, PR500): 0.55
- KG-FP-003-AUC (OV7_OVARY, PR500): 0.58
- KG-FP-003-AUC (OV17R_OVARY, PR300): 0.79
- KG-FP-003-AUC (OV56_OVARY, PR500): 0.75
- KG-FP-003-AUC (OVCAR8_OVARY, PR500): 0.52
- KG-FP-003-AUC (OVISE_OVARY, PR500): 0.52
- KG-FP-003-AUC (OVK18_OVARY, PR500): 0.99
- KG-FP-003-AUC (OVKATE_OVARY, PR300): 0.79
- KG-FP-003-AUC (OVTOKO_OVARY, PR500): 0.85
- KG-FP-003-AUC (OZ_BILIARY_TRACT, PR300): 0.74
- KG-FP-003-AUC (P12ICHIKAWA_HAEMATOPOIETIC_AND_LYMPHOID_TISSUE, PR300): 0.75
- KG-FP-003-AUC (PA1_OVARY, PR300): 0.89
- KG-FP-003-AUC (PACADD119_PANCREAS, PR300): 0.98
- KG-FP-003-AUC (PACADD137_PANCREAS, PR300): 0.98
- KG-FP-003-AUC (PACADD161_PANCREAS, PR300): 0.60
